According to paper PMC4592276:
Results are given in words; binding and its absence hold for the method and conditions named. In cells and extracts the contact can be indirect. Some results given as binding are weak or reduced against the parent protein; the word gives no strength.

Protein sequences, listed by entry. Tags and fused reporters are not part of them. Lines headed by an entry give the natural chain unless they say otherwise; changes in a name come on top. Chains listed by the source or under a name are the forms on record and can include a tag or linker. Residues count along the entry.
UniProt P03146: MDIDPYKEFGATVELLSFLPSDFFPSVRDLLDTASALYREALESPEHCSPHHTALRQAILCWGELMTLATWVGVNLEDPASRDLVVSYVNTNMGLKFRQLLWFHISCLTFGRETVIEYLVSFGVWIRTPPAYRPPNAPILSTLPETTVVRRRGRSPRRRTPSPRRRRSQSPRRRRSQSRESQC
HBc 1-147 (ARD-truncated HBV core protein, N-terminal capsid assembly domain) (Hepatitis B virus (serotype ayw)): residues 1-147 of P03146
HGS dUIM (UIM-truncated HGS, deletion of aa 257-277) (O14964-1, form named): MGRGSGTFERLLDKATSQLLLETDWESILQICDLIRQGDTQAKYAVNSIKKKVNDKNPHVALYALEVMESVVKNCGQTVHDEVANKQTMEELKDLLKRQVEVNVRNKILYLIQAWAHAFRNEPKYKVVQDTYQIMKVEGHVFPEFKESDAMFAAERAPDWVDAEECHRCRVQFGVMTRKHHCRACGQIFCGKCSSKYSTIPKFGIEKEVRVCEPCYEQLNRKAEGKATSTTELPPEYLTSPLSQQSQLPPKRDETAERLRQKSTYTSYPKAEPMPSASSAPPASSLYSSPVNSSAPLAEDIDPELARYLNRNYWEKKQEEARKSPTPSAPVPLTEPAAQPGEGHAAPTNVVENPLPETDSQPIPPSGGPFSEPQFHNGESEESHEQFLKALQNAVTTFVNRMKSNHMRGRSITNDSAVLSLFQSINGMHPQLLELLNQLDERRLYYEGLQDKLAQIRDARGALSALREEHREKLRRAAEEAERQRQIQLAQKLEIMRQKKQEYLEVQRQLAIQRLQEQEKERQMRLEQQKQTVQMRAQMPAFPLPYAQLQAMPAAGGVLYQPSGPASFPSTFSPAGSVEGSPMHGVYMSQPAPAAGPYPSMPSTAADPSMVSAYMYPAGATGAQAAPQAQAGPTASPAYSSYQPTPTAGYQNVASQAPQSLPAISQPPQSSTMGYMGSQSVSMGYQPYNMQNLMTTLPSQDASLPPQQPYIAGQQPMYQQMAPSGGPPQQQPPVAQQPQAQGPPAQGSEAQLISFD

Legend:
[1] = biological target: HBV core protein (HBc 1-183), wild type, serotype ayw (Hepatitis B virus (serotype ayw)) (UniProt P03146); experiment: co-IP; lysates of cells co-transfected with the HBV replicon pCHT-9/3091 (wild type or core mutant) and an HGS expression vector (2:1; HuH-7, day 3 post-transfection for Fig 7A); precipitated with anti-HBc antibody and protein A/G Dynabeads, 4°C; IP buffer 20 mM Tris pH 8.0, 120 mM NaCl, 0.2% NP-40, 1 mM EDTA, 50 mM NaF, 1 mM Na3VO4; SDS-PAGE
[2] = biological target: HBc 1-147 (ARD-truncated HBV core protein, N-terminal capsid assembly domain) (Hepatitis B virus (serotype ayw)) (UniProt P03146); experiment: as above

HGS dUIM (UIM-truncated HGS, deletion of aa 257-277) (from UniProt O14964-1 1-777)
binding [1]: binds
binding [2]: binds

HGS (HRS, hepatocyte growth factor-regulated tyrosine kinase substrate), wild type, Myc-Flag-tagged (from UniProt O14964-1 1-777)
binding [1]: binds
binding [2]: binds
